PubChem BioAssay AID1159584, Peter MacCallum Cancer Centre, 2016
Here is one part, drawn at random, of about 18,000 reagents tested. Further read-outs or replicates are left out here. Not given: the amount of reagent, the time to read-out.

- Aim: 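Knock-downs that harm CDH1-null cells more than parental MCF10A cells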 (primary screen)
- Cells: human MCF10A breast epithelial cells, parental and CDH1-null
- Reagent: siRNA against human genes
- Measured: 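Cell viability by CellTiter-Glo ATP luminescence, each line scaled to the mean of mock wells across plates, then CDH1-null over parental ratio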
- Scale: CDH1-null / parental viability ratio: higher = CDH1-null cells survive relatively better than parental; CDH1-null viability vs mock: higher = more viable CDH1-null cells
- Units: CDH1-null viability vs mock in fraction of mock

{"gene":"ZNF99","CDH1-null / parental viability ratio":0.89,"CDH1-null viability vs mock":0.74}
{"gene":"GHSR","CDH1-null / parental viability ratio":0.75,"CDH1-null viability vs mock":0.4}
{"gene":"TFRC","CDH1-null / parental viability ratio":1.1,"CDH1-null viability vs mock":0.68}
{"gene":"KCNN3","CDH1-null / parental viability ratio":1.27,"CDH1-null viability vs mock":1}
{"gene":"SLC27A6","CDH1-null / parental viability ratio":0.95,"CDH1-null viability vs mock":0.97}
{"gene":"CTTN","CDH1-null / parental viability ratio":0.94,"CDH1-null viability vs mock":0.84}
{"gene":"COX7C","CDH1-null / parental viability ratio":1.08,"CDH1-null viability vs mock":0.9}
{"gene":"XRN2","CDH1-null / parental viability ratio":0.93,"CDH1-null viability vs mock":0.89}
{"gene":"CREBZF","CDH1-null / parental viability ratio":0.96,"CDH1-null viability vs mock":0.67}
{"gene":"GRB2","CDH1-null / parental viability ratio":1.25,"CDH1-null viability vs mock":0.25}
{"gene":"CEBPB","CDH1-null / parental viability ratio":0.97,"CDH1-null viability vs mock":0.68}
{"gene":"HECW2","CDH1-null / parental viability ratio":1.19,"CDH1-null viability vs mock":0.62}
{"gene":"RNF139","CDH1-null / parental viability ratio":1.09,"CDH1-null viability vs mock":1.02}
{"gene":"KMT2E","CDH1-null / parental viability ratio":0.98,"CDH1-null viability vs mock":0.94}
{"gene":"TTC6","CDH1-null / parental viability ratio":1.19,"CDH1-null viability vs mock":0.86}
{"gene":"GYPA","CDH1-null / parental viability ratio":1.07,"CDH1-null viability vs mock":0.92}
{"gene":"CASP2","CDH1-null / parental viability ratio":1.14,"CDH1-null viability vs mock":0.74}

Next part, starting with the last 2 of the part before.
{"gene":"GYPA","CDH1-null / parental viability ratio":1.07,"CDH1-null viability vs mock":0.92}
{"gene":"CASP2","CDH1-null / parental viability ratio":1.14,"CDH1-null viability vs mock":0.74}
{"gene":"CEP162","CDH1-null / parental viability ratio":0.96,"CDH1-null viability vs mock":0.88}
{"gene":"INTS9","CDH1-null / parental viability ratio":0.91,"CDH1-null viability vs mock":0.82}
{"gene":"MSRB2","CDH1-null / parental viability ratio":1.21,"CDH1-null viability vs mock":0.92}
{"gene":"ABHD17C","CDH1-null / parental viability ratio":0.82,"CDH1-null viability vs mock":0.72}
{"gene":"BZW1","CDH1-null / parental viability ratio":0.74,"CDH1-null viability vs mock":0.64}
{"gene":"CCDC85B","CDH1-null / parental viability ratio":1.07,"CDH1-null viability vs mock":0.92}
{"gene":"KLHL26","CDH1-null / parental viability ratio":0.99,"CDH1-null viability vs mock":0.73}
{"gene":"SMIM43","CDH1-null / parental viability ratio":0.92,"CDH1-null viability vs mock":0.81}
{"gene":"ENPP4","CDH1-null / parental viability ratio":0.96,"CDH1-null viability vs mock":0.46}
{"gene":"TEX29","CDH1-null / parental viability ratio":0.91,"CDH1-null viability vs mock":0.8}
{"gene":"GLRX2","CDH1-null / parental viability ratio":1.18,"CDH1-null viability vs mock":1.18}
{"gene":"PMPCA","CDH1-null / parental viability ratio":1.11,"CDH1-null viability vs mock":0.89}
{"gene":"CFAP91","CDH1-null / parental viability ratio":1.13,"CDH1-null viability vs mock":0.95}
{"gene":"SNX10","CDH1-null / parental viability ratio":1.2,"CDH1-null viability vs mock":0.84}
{"gene":"AATF","CDH1-null / parental viability ratio":0.99,"CDH1-null viability vs mock":0.79}
{"gene":"SRPK1","CDH1-null / parental viability ratio":1,"CDH1-null viability vs mock":0.94}
{"gene":"ANK1","CDH1-null / parental viability ratio":0.92,"CDH1-null viability vs mock":0.84}
{"gene":"RNF121","CDH1-null / parental viability ratio":0.83,"CDH1-null viability vs mock":0.71}
